According to patent publication US9815790B2, “Chemically modified quinoline and quinolone derivatives useful as CB-1 inverse agonists” (Janssen Pharmaceutica NV, priority 2015, dated 2017):
At least one compound was matched to its structure with a doubt left.

Assay: Cleavage Reaction for Cleavable Linkers
Assay type: physicochemical

SMILES: COCCOCCOCCOCCOCCOCCOCCOCCOCCOCCOCCOCCNC(=O)OCc1ccc(OCCOCCOCCOCCOCCOCCOc2cc(NC3CCN(S(=O)(=O)C(F)(F)F)CC3)c3cc(C(c4ccc(Cl)cc4)c4ccc(Cl)cc4)ccc3n2)cc1 [Cpd 13]
- Linker cleavage by LCMS (Condition 1: MeCN/water/TFA, rt, 48 h): consumption of compound 13 and formation of compound 11 and PEG amine
- Linker cleavage by LCMS (Condition 2: MeCN/water/TFA, 45° C., 18 h): consumption of compound 13 and formation of compound 11 and PEG amine
